This is an account of results in PMC3111535.

Protein sequences, listed by entry. Tags and fused reporters are not part of them. Lines headed by an entry give the natural chain unless they say otherwise; changes in a name come on top.
UniProt Q8W2F1: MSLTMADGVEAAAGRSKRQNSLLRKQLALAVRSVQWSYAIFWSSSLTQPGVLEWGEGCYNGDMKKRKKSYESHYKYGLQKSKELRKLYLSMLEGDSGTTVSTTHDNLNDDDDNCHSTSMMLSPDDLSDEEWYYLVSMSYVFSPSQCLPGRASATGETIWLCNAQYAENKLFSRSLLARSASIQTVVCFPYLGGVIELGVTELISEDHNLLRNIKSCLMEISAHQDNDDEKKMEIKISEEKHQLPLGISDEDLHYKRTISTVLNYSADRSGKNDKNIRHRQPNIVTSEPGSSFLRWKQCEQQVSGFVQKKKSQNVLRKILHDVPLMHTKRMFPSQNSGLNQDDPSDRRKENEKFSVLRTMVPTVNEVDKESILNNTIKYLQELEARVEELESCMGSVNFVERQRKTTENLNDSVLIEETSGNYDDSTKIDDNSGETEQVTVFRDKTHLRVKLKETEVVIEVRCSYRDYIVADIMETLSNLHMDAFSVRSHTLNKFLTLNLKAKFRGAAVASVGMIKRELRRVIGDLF

No constants are given. Whether binding was seen depends on the method and setting. Binding can be weak; no strength is given.

This test addresses ATMYC1 Ler with A189P (Arabidopsis thaliana) (UniProt Q8W2F1). The test is described as follows: two-hybrid; ATMYC1 in the DNA binding vector pGBT9 RFB, TTG1 or GL1 in activation domain vectors; yeast strain Y190; growth on histidine dropout media and β-galactosidase activity (X-gal, colonies lifted on nitrocellulose).

B1: TTG1 (protein, UniProt Q9XGN1 1-341)
chain: MDNSAPDSLSRSETAVTYDSPYPLYAMAFSSLRSSSGHRIAVGSFLEDYNNRIDILSFDSDSMTVKPLPNLSFEHPYPPTKLMFSPPSLRRPSSGDLLASSGDFLRLWEINEDSSTVEPISVLNNSKTSEFCAPLTSFDWNDVEPKRLGTCSIDTTCTIWDIEKSVVETQLIAHDKEVHDIAWGEARVFASVSADGSVRIFDLRDKEHSTIIYESPQPDTPLLRLAWNKQDLRYMATILMDSNKVVILDIRSPTMPVAELERHQASVNAIAWAPQSCKHICSGGDDTQALIWELPTVAGPNGIDPMSVYSAGSEINQLQWSSSQPDWIGIAFANKMQLLRV
In the case of B1, the binding result is given as “binds”.

B2: GL1 (protein, UniProt P27900 1-228)
chain: MRIRRRDEKENQEYKKGLWTVEEDNILMDYVLNHGTGQWNRIVRKTGLKRCGKSCRLRWMNYLSPNVNKGNFTEQEEDLIIRLHKLLGNRWSLIAKRVPGRTDNQVKNYWNTHLSKKLVGDYSSAVKTTGEDDDSPPSLFITAATPSSCHHQQENIYENIAKSFNGVVSASYEDKPKQELAQKDVLMATTNDPSHYYGNNALWVHDDDFELSSLVMMNFASGDVEYCL
As to B2, the binding entry is on record as “binds”.
